The other results are listed elsewhere or left out.
Key:
Experiment in all cases: glycan array binding signal (z-score within array); higher = stronger binding
Settings in all cases: glycan notation: IUPAC condensed, linker removed
[1] = target: Neu5Ac(a2-3)Gal(b1-4)GlcNAc(b1-3)[Neu5Ac(a2-3)Gal(b1-4)GlcNAc(b1-6)]GalNAc
Outline: (§1)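 Arrays were curated from the Consortium for Functional Glycomics database, 3228 in total, and kept only where the protein sequence was available. Binding is expressed as a within-array Z-score. This score was averaged across arrays of the same protein sequence at different concentrations or buffers and across linkers, and negative values can be read as non-binding.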

[2] = target: Neu5Ac(a2-3)Gal(b1-4)GlcNAc(b1-6)GalNAc
Outline: as §1

[3] = target: Neu5Ac(a2-3)Gal(b1-4)GlcNAc(b1-6)[Gal(b1-3)]GalNAc
Outline: as §1

[4] = target: Neu5Ac(a2-3)Gal(b1-4)GlcNAc(b1-6)[Neu5Ac(a2-3)Gal(b1-3)]GalNAc
Outline: as §1

[5] = target: Neu5Ac(a2-3)Gal(b1-4)GlcNAc6S
Outline: as §1

[6] = target: Neu5Ac(a2-3)Gal(b1-4)[Fuc(a1-3)]GlcNAc
Outline: as §1

[7] = target: Neu5Ac(a2-3)Gal(b1-4)[Fuc(a1-3)]GlcNAc(b1-2)Man
Outline: as §1

[8] = target: Neu5Ac(a2-3)Gal(b1-4)[Fuc(a1-3)]GlcNAc(b1-3)Gal
Outline: as §1

[9] = target: Neu5Ac(a2-3)Gal(b1-4)[Fuc(a1-3)]GlcNAc(b1-3)Gal(b1-4)GlcNAc
Outline: as §1

[10] = target: Neu5Ac(a2-3)Gal(b1-4)[Fuc(a1-3)]GlcNAc(b1-3)Gal(b1-4)[Fuc(a1-3)]GlcNAc(b1-3)Gal(b1-4)[Fuc(a1-3)]GlcNAc
Outline: as §1

[11] = target: Neu5Ac(a2-3)Gal(b1-4)[Fuc(a1-3)]GlcNAc(b1-3)GalNAc
Outline: as §1

[12] = target: Neu5Ac(a2-3)Gal(b1-4)[Fuc(a1-3)]GlcNAc(b1-6)[Gal(b1-3)]GalNAc
Outline: as §1

[13] = target: Neu5Ac(a2-3)Gal(b1-4)[Fuc(a1-3)]GlcNAc(b1-6)[Neu5Ac(a2-3)Gal(b1-3)]GalNAc
Outline: as §1

[14] = target: Neu5Ac(a2-3)Gal(b1-4)[Fuc(a1-3)]GlcNAc6S
Outline: as §1

[15] = target: Neu5Ac(a2-3)Gal6S(b1-4)GlcNAc
Outline: as §1

[16] = target: Neu5Ac(a2-3)Gal6S(b1-4)[Fuc(a1-3)]GlcNAc
Outline: as §1

Neu5Ac(a2-3)GalNAc = target: Neu5Ac(a2-3)GalNAc
Outline: as §1

[17] = target: Neu5Ac(a2-3)GalNAc(b1-4)GlcNAc
Outline: as §1

[18] = target: Neu5Ac(a2-3)[GalNAc(b1-4)]Gal(b1-4)Glc
Outline: as §1

[19] = target: Neu5Ac(a2-3)[GalNAc(b1-4)]Gal(b1-4)GlcNAc
Outline: as §1

[20] = target: Neu5Ac(a2-3)[GalNAc(b1-4)]Gal(b1-4)GlcNAc(b1-3)GalNAc
Outline: as §1

[21] = target: Neu5Ac(a2-3)[Neu5Ac(a2-6)]GalNAc
Outline: as §1

Neu5Ac(a2-6)Gal = target: Neu5Ac(a2-6)Gal
Outline: as §1

[22] = target: Neu5Ac(a2-6)Gal(b1-3)GlcNAc(b1-3)[Gal(b1-4)GlcNAc(b1-6)]Gal(b1-4)Glc
Outline: as §1

Neu5Ac(a2-6)Gal(b1-4)Glc = target: Neu5Ac(a2-6)Gal(b1-4)Glc
Outline: as §1

[23] = target: Neu5Ac(a2-6)Gal(b1-4)GlcNAc
Outline: as §1

[24] = target: Neu5Ac(a2-6)Gal(b1-4)GlcNAc(b1-2)Man
Outline: as §1

[25] = target: Neu5Ac(a2-6)Gal(b1-4)GlcNAc(b1-2)Man(a1-3)Man(b1-4)GlcNAc(b1-4)GlcNAc
Outline: as §1

[26] = target: Neu5Ac(a2-6)Gal(b1-4)GlcNAc(b1-2)Man(a1-3)[Gal(b1-4)GlcNAc(b1-2)Man(a1-6)]Man(b1-4)GlcNAc(b1-4)GlcNAc
Outline: as §1

[27] = target: Neu5Ac(a2-6)Gal(b1-4)GlcNAc(b1-2)Man(a1-3)[GlcNAc(b1-2)Man(a1-6)]Man(b1-4)GlcNAc(b1-4)GlcNAc
Outline: as §1

[28] = target: Neu5Ac(a2-6)Gal(b1-4)GlcNAc(b1-2)Man(a1-3)[GlcNAc(b1-4)][Neu5Ac(a2-6)Gal(b1-4)GlcNAc(b1-2)Man(a1-6)]Man(b1-4)GlcNAc(b1-4)GlcNAc
Outline: as §1

B1: Epa21 (Candida glabrata) (protein)
chain: MGSSHHHHHHSSGLVPRGSHMASTPNIESHPQGCSPVDTSGIKPGLKMDLYRFPITPPGTGCWSWDWLTVTPDFPRSGYWKWPKIAEVDGVVGPLHLDSGHPTCDPLTSVLPHGFNYLQSITTTNFTMVLHGYFVPKQSGKYTFEFKADDALLLNLGAGNAFSCCDYNNSQYNQGEYLAYAIWSKNNQTATLYLEKGIYYPIRVFYHNRCCGAYMDVVYYFNDSPIPNRDFSGLLFSIPDSDSCDANI
glycan array binding signal (z-score) [1]: 0.888
glycan array binding signal (z-score) [2]: -0.355
glycan array binding signal (z-score) [3]: 0.764
glycan array binding signal (z-score) [4]: -0.674
glycan array binding signal (z-score) [5]: 0.644
glycan array binding signal (z-score) [6]: -0.539
glycan array binding signal (z-score) [7]: -0.448
glycan array binding signal (z-score) [8]: -0.526
glycan array binding signal (z-score) [9]: 0.422
glycan array binding signal (z-score) [10]: -0.235
glycan array binding signal (z-score) [11]: 1.87
glycan array binding signal (z-score) [12]: 2.11
glycan array binding signal (z-score) [13]: 1.81
glycan array binding signal (z-score) [14]: 0.564
glycan array binding signal (z-score) [15]: -0.217
glycan array binding signal (z-score) [16]: -0.818
glycan array binding signal (z-score) (Neu5Ac(a2-3)GalNAc): -0.485
glycan array binding signal (z-score) [17]: 0.876
glycan array binding signal (z-score) [18]: -0.854
glycan array binding signal (z-score) [19]: -0.863
glycan array binding signal (z-score) [20]: -0.061
glycan array binding signal (z-score) [21]: 0.567
glycan array binding signal (z-score) (Neu5Ac(a2-6)Gal): -0.155
glycan array binding signal (z-score) [22]: -0.825
glycan array binding signal (z-score) (Neu5Ac(a2-6)Gal(b1-4)Glc): -0.472
glycan array binding signal (z-score) [23]: -0.803
glycan array binding signal (z-score) [24]: -0.212
glycan array binding signal (z-score) [25]: 0.044
glycan array binding signal (z-score) [26]: -0.438
glycan array binding signal (z-score) [27]: -0.421
glycan array binding signal (z-score) [28]: -0.514

— the supplement of paper PMC8728848
